Our source for the general growth inhibition and growth inhibition values is the supplement of paper PMC8326762, “A Small Molecule Inhibitor of Pex3–Pex19 Interaction Disrupts Glycosome Biogenesis and Causes Lethality in Trypanosoma brucei” (Frontiers in Cell and Developmental Biology, 2021).

Experiment [1] relates to Saccharomyces cerevisiae HF7c pdr5Δ. Put plainly: general growth inhibition of yeast HF7c pdr5Δ in -Leu -Trp medium, relative to DMSO; higher = stronger general growth inhibition. The note with it: 100 µM; 24 h.
Experiment [2] deals with human PEX3-PEX19 interaction (yeast two-hybrid). Nature of the experiment: growth inhibition of yeast two-hybrid strain reporting HsPex3-HsPex19 interaction, relative to DMSO; higher = stronger inhibition of human Pex3-Pex19 interaction / growth. As to conditions: 100 µM; 24 h; 3-aminotriazole 10 mM.
Experiment [3] deals with T. brucei Pex3-Pex19 interaction (yeast two-hybrid). Put plainly: growth inhibition of yeast two-hybrid strain reporting TbPex3-TbPex19 interaction, relative to DMSO; higher = stronger inhibition of T. brucei Pex3-Pex19 interaction / growth. As to conditions: 100 µM; 24 h.

Counter-ions that a name gives are not always drawn. Some of the results follow. Single values of this set are uncertain.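 Yeast growth was read as optical density at 600 nm. The two-hybrid strains grew without histidine, so growth needed the Pex3–Pex19 binding; a compound counted as trypanosome-selective if it cut growth of the trypanosome-pair strain by more than 65% and the human-pair strain by less than 65%.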

In experiment [1], `CCCC(C(=O)OCCN(CC)CC)(c1ccccc1)c1ccccc1` [SKF-525A hydrochloride] displayed a general growth inhibition of 42.6%. In addition, the figures for the growth inhibition in experiment [2] and in experiment [3] were 37.3% and 67.2%, respectively.
In experiment [1], `Cc1cc2c(cc1Cl)N(C(=O)Nc1cccc3ncccc13)CC2` displayed a general growth inhibition of 34.3%. In addition, the growth inhibition in experiment [2] worked out at 26.4%; in experiment [3], 40%.
Taken in the same sequence, the figures for `CC1CNc2c(cccc2S(=O)(=O)N[C@@H](CCCNC(=N)N)C(=O)N2CC[C@@H](C)C[C@@H]2C(=O)O)C1` (stereo partly drawn) [Argatroban monohydrate] were 32%, 42.2% and 49.4%.
`CCN(Cc1ccncc1)C(=O)C(CO)c1ccccc1` (stereo not drawn) [Tropicamide] showed a general growth inhibition in experiment [1] of 39%. The growth inhibition in experiment [2] worked out at 47.2%; in experiment [3], 58%.
On the same counts, the results for `[N-]=[N+]=Nc1ccc(C(=O)CSC[C@H](NC(=O)CC[C@H](N)C(=O)O)C(=O)NCC(=O)O)cc1` [S-(p-Azidophenacyl)glutathione] are 60%, 47.3% and 59.2%.
Taken in the same sequence, the figures for `CC(=O)N[C@@H](Cc1c[nH]c2ccccc12)C(=O)OCc1cc(C(F)(F)F)cc(C(F)(F)F)c1` were 48.1%, 43.4% and 63.6%.
As for `NCCCCCCCCCCN` [1,10-Diaminodecane], in experiment [1], the general growth inhibition amounted to 36.6%. Besides, the growth inhibition was 42.9% in experiment [2] and 66.2% in experiment [3].
`CCN1CCc2nc(N)oc2CC1` [B-HT 933 dihydrochloride] returned a general growth inhibition in experiment [1] of 42.5%. Further, the growth inhibition in experiment [2] was 41.6%; in experiment [3] it was 64.6%.
On the same counts, the results for `CCCCNc1ccc(C(=O)OCCN(C)C)cc1` [Tetracaine hydrochloride] are 41.7%, 33.5% and 57.6%.
On the same counts, the results for `Fc1ccc(CN(C2=NCCN2)c2c(Cl)cccc2Cl)cc1` [IMID-4F hydrochloride] are 21.7%, 35.7% and 52.6%.
Taken in the same sequence, the figures for `CCC(C)N(C)C(=O)c1cc2ccccc2c(-c2ccccc2Cl)n1` (stereo not drawn) were 55%, 43.1% and 53.3%.
Consider `O=c1c(O)c(-c2ccc(O)c(O)c2)oc2cc(O)cc(O)c12` [Quercetin dihydrate], for which the general growth inhibition in experiment [1] worked out at 37.2%. In addition, the results for the growth inhibition in experiment [2] and in experiment [3] were 33.3% and 59%, respectively.
Taken in the same sequence, the figures for `CCCCc1ncc(/C=C(\Cc2cccs2)C(=O)O)n1Cc1ccc(C(=O)O)cc1` [Eprosartan mesylate] were 38.6%, 7.23% and 59%.
On the same counts, the results for `Nc1nc(=O)c(Br)c(-c2ccccc2)[nH]1` [Bropirimine] are 40%, 42.8% and 63.4%.
With `O=C1NC(=O)C(c2ccccc2)(c2ccccc2)N1` [5,5-Diphenylhydantoin], the general growth inhibition in experiment [1] came out at 34.4%. The growth inhibition in experiment [2] was 47.8%; in experiment [3] it was 69.3%.
In experiment [1], `NC1(C(=O)O)CC1` [1-Aminocyclopropanecarboxylic acid hydrochloride] registered a general growth inhibition of 32.3%. Besides, the growth inhibition in experiment [2] was determined as 32.6%; in experiment [3] it was 49.7%.
On the same counts, the results for `CC1(C)CCC2=C(O1)c1ccccc1C(=O)C2=O` [beta-Lapachone] are 67.6%, 72.1% and 69.7%.
On the same counts, the results for `CCN(CC)C(=O)c1ccc(O)c(OC)c1` [Vanillic acid diethylamide] are 27.4%, 46.7% and 63.4%.
For the compound `CC(=O)CCCCn1c(=O)c2c(ncn2C)n(C)c1=O` [Pentoxifylline], the general growth inhibition in experiment [1] turned out to be 48.7%. Moreover, the growth inhibition in experiment [2] was determined as 55.1%; in experiment [3], 65.1%.
On the same counts, the results for `N#Cc1cc2nc(O)c(O)nc2cc1[N+](=O)[O-]` [CNQX disodium] are 39.9%, 37.6% and 59.3%.
On the same counts, the results for `CCN(CC)CCCC(C)Nc1ccnc2cc(Cl)ccc12` (stereo not drawn) [Chloroquine diphosphate] are 36.1%, 45.9% and 60.8%.
On the same counts, the results for `Nc1nc2c(c(=O)[nH]1)C[C@@H](CCc1ccc(C(=O)N[C@@H](CCC(=O)O)C(=O)O)cc1)CN2` [Lometrexol hydrate] are 39.8%, 44.6% and 69.1%.
In turn, `O=CN(O)CCCP(=O)(O)O` [Fosmidomycin sodium salt hydrate] yielded a general growth inhibition in experiment [1] of 54.1%. Moreover, the growth inhibition in experiment [2] worked out at 38.9%; in experiment [3], 56.9%.
On the same counts, the results for `C[C@]12CC[C@@H]3c4ccc(O)cc4C[C@@H](CCCCCCCCC[S+]([O-])CCCC(F)(F)C(F)(F)F)[C@H]3[C@@H]1CC[C@@H]2O` (stereo partly drawn) [Fulvestrant] are 44.3%, 35.1% and 56.6%.
On the same counts, the results for `COCCOc1cc2ncnc(Cl)c2cc1OCCOC` are 48.4%, 35.7% and 65.6%.
Turning to `CC(N)C(=O)OC(C)(C)Cc1ccc(Cl)cc1` (stereo not drawn) [Alaproclate hydrochloride], in experiment [1], the general growth inhibition was found to be 45.7%. The growth inhibition in experiment [2] amounted to 41.7%; in experiment [3], 59%.
Taken in the same sequence, the figures for `NCCS(=O)(=O)O` [Taurine] were 49.6%, 51.9% and 65%.
Taken in the same sequence, the figures for `CCN(CC)CCOC(=O)C1(C2CCCCC2)CCCCC1` [Dicyclomine hydrochloride] were 36.5%, 26.8% and 51.1%.
Taken in the same sequence, the figures for `N=C(N)c1ccc(N)cc1` [4-Aminobenzamidine dihydrochloride] were 45.8%, 42.8% and 55.5%.
Consider `S=c1[nH]c(-c2ccccc2)cn1-c1ccccc1`, for which, in experiment [1], the general growth inhibition worked out at 41.8%. Further, the growth inhibition is 45% in experiment [2] and 44.4% in experiment [3].
Taken in the same sequence, the figures for `Cn1c(=O)c2[nH]c(-c3ccccc3)nc2n(C)c1=O` [1,3-Dimethyl-8-phenylxanthine] were 45.6%, 41.5% and 62.9%.
